Test results taken from paper PMC10241914.
Results are given in words; binding and its absence hold for the method and conditions named. Binding seen in cells or lysates may run through a third protein. Some binding calls cover weakened binding; strength is not graded here. For part of these data: Tags and fused reporters may be left off the sequences shown.

By UniProt entry, the sequences of proteins in these tests, tags left out.
UniProt Q16665: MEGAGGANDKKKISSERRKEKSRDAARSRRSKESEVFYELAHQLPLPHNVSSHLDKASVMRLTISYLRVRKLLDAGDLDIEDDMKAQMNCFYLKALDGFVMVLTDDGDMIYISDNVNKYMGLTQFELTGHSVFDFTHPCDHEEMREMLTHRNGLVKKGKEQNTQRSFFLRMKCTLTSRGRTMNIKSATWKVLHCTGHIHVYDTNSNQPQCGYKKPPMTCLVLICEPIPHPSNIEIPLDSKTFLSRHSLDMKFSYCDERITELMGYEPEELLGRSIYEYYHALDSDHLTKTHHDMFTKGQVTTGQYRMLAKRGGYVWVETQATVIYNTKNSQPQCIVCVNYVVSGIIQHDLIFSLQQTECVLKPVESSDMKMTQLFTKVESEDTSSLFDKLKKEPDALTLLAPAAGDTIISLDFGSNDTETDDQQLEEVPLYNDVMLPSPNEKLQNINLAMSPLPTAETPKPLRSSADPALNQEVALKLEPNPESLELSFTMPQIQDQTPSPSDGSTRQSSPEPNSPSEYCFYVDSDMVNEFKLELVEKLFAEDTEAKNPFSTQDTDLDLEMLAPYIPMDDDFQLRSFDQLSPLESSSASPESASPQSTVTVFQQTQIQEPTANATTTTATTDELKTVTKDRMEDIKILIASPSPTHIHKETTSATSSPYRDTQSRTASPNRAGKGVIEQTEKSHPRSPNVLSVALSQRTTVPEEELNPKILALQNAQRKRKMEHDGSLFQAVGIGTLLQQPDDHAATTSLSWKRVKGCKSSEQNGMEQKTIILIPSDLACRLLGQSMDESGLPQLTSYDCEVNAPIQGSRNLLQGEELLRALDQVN
UniProt P11142: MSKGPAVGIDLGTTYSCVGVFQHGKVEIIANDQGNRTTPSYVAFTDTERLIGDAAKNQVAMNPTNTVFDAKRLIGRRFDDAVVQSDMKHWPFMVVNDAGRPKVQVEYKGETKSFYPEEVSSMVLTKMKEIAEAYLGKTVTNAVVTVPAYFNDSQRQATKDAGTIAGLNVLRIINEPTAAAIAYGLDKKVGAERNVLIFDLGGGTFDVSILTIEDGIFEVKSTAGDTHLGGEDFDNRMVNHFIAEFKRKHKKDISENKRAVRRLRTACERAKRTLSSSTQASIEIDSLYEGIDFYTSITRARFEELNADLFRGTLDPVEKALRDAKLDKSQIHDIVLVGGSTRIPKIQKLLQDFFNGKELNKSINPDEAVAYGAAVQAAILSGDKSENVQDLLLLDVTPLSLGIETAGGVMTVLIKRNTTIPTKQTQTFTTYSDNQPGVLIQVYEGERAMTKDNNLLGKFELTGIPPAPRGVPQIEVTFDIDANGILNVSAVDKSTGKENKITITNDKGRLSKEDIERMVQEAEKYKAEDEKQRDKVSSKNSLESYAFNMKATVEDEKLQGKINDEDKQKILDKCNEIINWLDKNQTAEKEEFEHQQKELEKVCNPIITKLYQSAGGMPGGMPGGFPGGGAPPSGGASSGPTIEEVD

How the values were obtained:
Flag-HIF1A [1] = target: Flag-HIF1A (UniProt Q16665); test: co-IP; anti-Flag immunoprecipitation from 293T cells transfected with Flag-HIF1A or Flag-HIF1A plus pk-Myc-C11orf54 for 48 h; endogenous HSC70 blotted; IgG as negative control
[2] = target: T1, C11orf54 (chromosome 11 open reading frame 54) (human (endogenous in PLC/PRF/5)) (UniProt Q9H0W9); test: co-IP; endogenous; anti-C11orf54 immunoprecipitation from PLC/PRF/5 whole-cell lysates, immunoblot; IgG as negative control
T1 sequence: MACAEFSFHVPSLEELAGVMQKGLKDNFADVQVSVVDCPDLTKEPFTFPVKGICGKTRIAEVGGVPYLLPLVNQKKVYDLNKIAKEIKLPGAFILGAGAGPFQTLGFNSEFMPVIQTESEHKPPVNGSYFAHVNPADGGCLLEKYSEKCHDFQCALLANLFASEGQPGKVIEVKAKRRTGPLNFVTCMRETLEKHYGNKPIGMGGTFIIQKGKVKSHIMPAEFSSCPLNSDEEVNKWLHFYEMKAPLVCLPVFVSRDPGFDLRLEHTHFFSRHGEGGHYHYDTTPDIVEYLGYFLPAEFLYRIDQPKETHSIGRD

[3] = target: HIF1A (human (endogenous in PLC/PRF/5)) (UniProt Q16665); test: co-IP; endogenous; anti-HIF1A immunoprecipitation from PLC/PRF/5 cells (control and C11orf54 knockdown) under control and 100 nM BafA1 treatment for 8 h; IgG as negative control
Flag-HIF1A [4] = target: Flag-HIF1A (UniProt Q16665); test: co-IP; anti-Flag immunoprecipitation from 293T cells transfected with Flag-HIF1A, HA-HSC70 and gradient pk-Myc-C11orf54 for 48 h; IgG as negative control
[5] = target: heat-shock cognate protein of 70 kDa (HSC70) (human (endogenous in 293T)) (UniProt P11142); test: co-IP; anti-Flag immunoprecipitation from 293T cells transfected with Flag-HIF1A or Flag-HIF1A plus pk-Myc-C11orf54 for 48 h; endogenous HSC70 blotted; IgG as negative control
HA-HSC70 = HA-HSC70 (UniProt P11142); test: co-IP; anti-Flag immunoprecipitation from 293T cells transfected with Flag-HIF1A, HA-HSC70 and gradient pk-Myc-C11orf54 for 48 h; IgG as negative control

Molecule: heat-shock cognate protein of 70 kDa (HSC70) (from UniProt P11142 1-646)
- binding (Flag-HIF1A [1]): binds
- binding [2]: binds
- binding [3]: binds

Molecule: HA-HSC70 (from UniProt P11142 1-646)
- binding (Flag-HIF1A [4]): binds

B1: pk-Myc-C11orf54 (protein, UniProt Q9H0W9 1-315)
chain: MACAEFSFHVPSLEELAGVMQKGLKDNFADVQVSVVDCPDLTKEPFTFPVKGICGKTRIAEVGGVPYLLPLVNQKKVYDLNKIAKEIKLPGAFILGAGAGPFQTLGFNSEFMPVIQTESEHKPPVNGSYFAHVNPADGGCLLEKYSEKCHDFQCALLANLFASEGQPGKVIEVKAKRRTGPLNFVTCMRETLEKHYGNKPIGMGGTFIIQKGKVKSHIMPAEFSSCPLNSDEEVNKWLHFYEMKAPLVCLPVFVSRDPGFDLRLEHTHFFSRHGEGGHYHYDTTPDIVEYLGYFLPAEFLYRIDQPKETHSIGRD
- binding [5]: binds
- binding (HA-HSC70): binds
